# Experimental data published in PubChem BioAssay AID504444 (National Center for Advancing Translational Sciences (NCATS), 2011).
# About 7,500 (2.1%) of roughly 360,000 compounds were called active. The shares of active, inactive and inconclusive entries below differ from those in the screen. The call rests on the fitted dose curve; in most records, active means well fitted inhibition curve with a large enough effect; inconclusive means small, poorly fitted or top-dose-only effect, or effect the other way; inactive means flat fitted curve, though single readings scatter. Potencies of inconclusive entries are doubtful fits and often do not repeat.
# Experiment: Nrf2 qHTS screen for inhibitors; further: nearly all actives have a fitted effect of over 60% in size
# Details: A549 ARE-Fluc reporter, luciferase luminescence, 18-24 h; activity change, negative = inhibition: at 46 µM (top of the series)
# Method in brief: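 A549 ARE_Fluc cells, 5000/well, 5% FBS OPTI-MEM; compounds in dose-response, 18-24 h at 37 °C/5% CO2; CellTiter-Fluor viability read (Ex 405/Em 525), then BugLite luciferase luminescence = Nrf2 activity.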
# On the % scale 0 is the no-effect control and ±100 the full control effect; potency means the concentration at half of the fitted maximal effect.
Compound,Potency,"activity change, negative = inhibition"
CC(C)OCCCN1C(=O)c2[nH]nc(-c3ccccc3O)c2C1c1cccc(OCc2ccccc2)c1 (stereo not given),"inconclusive: 20.6 µM [falling, single point]",
COC1=C(C)C(=O)C2=C(C1=O)C1C3CC4=C(C(=O)C(OC)=C(C)C4=O)C(CNC(=O)C(C)=O)N3C(C#N)C(C2)N1C (stereo not given),active: 0.58 µM,
Cn1nnnc1SCC(=O)Nc1ccccc1C(=O)NCc1ccccc1,"inconclusive: 13 µM [activator, partial curve, poor fit]",
S=c1[nH]nc(-c2ccccn2)n1/N=C/c1ccc(Br)s1,"inconclusive: 0.259 µM [activator, full curve, poor fit]",
CCN(CC)c1ccc(/C=C/c2cccc[n+]2C)c(OC)c1,active: 5.8 µM,
CC(=O)Nc1ccc(S(=O)(=O)N2CCC(C(=O)c3ccc(Cl)cc3)CC2)cc1,"inconclusive: 29.1 µM [falling, single point]",
O=C1CC(c2ccco2)c2ccc3ccccc3c2N1 (stereo not given),"inconclusive: 29.1 µM [activator, single point]",
Cc1ccc(Cn2c(SCc3ccc(C(=O)NCCc4ccccc4)cc3)nc3ccncc32)cc1,"inconclusive: 18.4 µM [falling, partial curve, poor fit]",
O=C(CSc1ncnc2c1cnn2Cc1ccccc1)Nc1ccc2c(c1)OCCO2,"inconclusive: 29.1 µM [falling, single point]",
O=C(C1CCN(c2nc(-c3ccccc3)nc3c2CCC3)CC1)N1CCCC1,"inconclusive: 14.6 µM [falling, partial curve, poor fit]",
CONC(=O)C[C@@H](C#N)NC(=O)[C@@H]1CCCN1C(=O)[C@@H](NC(=O)c1ccc(N)c(Cl)c1)C(C)(C)C,,inactive: 2.48%
COc1ccccc1NS(=O)(=O)c1cc(C(=O)NC2CCN(Cc3ccccc3)CC2)ccc1C,active: 5.8 µM,
Cc1[nH]c2ccccc2c1C(=O)CSC(=S)N1CCCCC1,"inconclusive: 8.2 µM [activator, single point]",
CCn1cc(S(=O)(=O)c2cccc(C)c2)c(=O)c2cc(F)c(N3CCCCC3C)cc21 (stereo not given),,inactive: -5%
O=[N+]([O-])c1ccc(Cn2cc(-c3cccc(C(F)(F)F)c3)nn2)cc1,"inconclusive: 23.1 µM [falling, partial curve, poor fit]",
COC(=O)c1ccc(Nc2ncnc3c2cnn3-c2cccc(C)c2)cc1,"inconclusive: 1.64 µM [falling, full curve, poor fit]",
NC(=O)c1ncn([C@@H]2O[C@H](CNCc3c(OCc4ccccc4F)ccc4ccccc34)[C@@H](O)[C@H]2O)n1,,inactive: -1.61%
COc1ccc2cc([C@H](C)C(=O)N(C)Cc3ccccc3N3CCCC3)ccc2c1,,inactive: -26.8%
COc1ccc(OCc2nn3c(Cn4cnc5ccccc54)nnc3s2)cc1,"inconclusive: 20.6 µM [falling, partial curve]",
Cc1cc(N2CCOCC2)nc(SCC(=O)c2ccccc2)n1,"inconclusive: 2.91 µM [activator, partial curve, poor fit]",
COc1cccc(CN(Cc2ccco2)C(c2ccc(F)cc2)c2nnnn2C(C)(C)C)c1 (stereo not given),"inconclusive: 29.1 µM [falling, single point]",
Cc1ccc(S(=O)(=O)NC(C(=O)Oc2ccc3ccc(=O)oc3c2)c2ccccc2)cc1 (stereo not given),,inactive: 9.38%

# Random excerpt: 2 compounds from above, in no set order.
Compound,Potency,"activity change, negative = inhibition"
COC1=C(C)C(=O)C2=C(C1=O)C1C3CC4=C(C(=O)C(OC)=C(C)C4=O)C(CNC(=O)C(C)=O)N3C(C#N)C(C2)N1C (stereo not given),active: 0.58 µM,
COc1ccc2cc([C@H](C)C(=O)N(C)Cc3ccccc3N3CCCC3)ccc2c1,,inactive: -26.8%

# Additional results.

Compound,Potency,"activity change, negative = inhibition"
O=C(NCC1CCCO1)c1ccc(-c2ccccc2Cl)o1 (stereo not given),"inconclusive: 18.4 µM [activator, partial curve, poor fit]",
CCOC(=O)C1=CN(Cc2ccco2)S(=O)(=O)N(CC)C1c1ccc(F)c(Cl)c1 (stereo not given),"inconclusive: 29.1 µM [falling, single point]",
CN1CCc2c(sc3c2C(=O)NC(c2cccs2)N3)C1 (stereo not given),"inconclusive: 7.31 µM [activator, partial curve]",
CC1CCCN(C(=O)C(C)Sc2nc(-c3ccccc3)cc(C(F)(F)F)n2)C1 (stereo not given),"inconclusive: 23.1 µM [falling, partial curve, poor fit]",
Cc1ccc(S(=O)(=O)N2C[C@@H]3[C@H]4CC[C@H](C4)[C@@H]3[C@@H](C)[C@H]2c2ccn(Cc3ccccc3)c2)cc1,"inconclusive: 29.1 µM [falling, single point]",
CCOC(=O)c1[nH]c2ccc(OC)cc2c1NC(=O)/C=C/c1ccc2c(c1)OCO2,"inconclusive: 29.1 µM [falling, single point]",
Cc1ccc(C)n1-c1ccc(NC(=O)c2ccccc2)cc1,,inactive: -17.1%
COc1cc(C(=O)NC2CC(C)(C)Cc3c2cnn3-c2ccccc2)cc(OC)c1OC (stereo not given),,inactive: 1.08%
O=C(CSCc1cccc(Cl)c1)N/N=C/c1ccc(OCC(=O)N2CCCCC2)cc1,active: 18.4 µM,
Cc1ccc(NC(=O)CSCc2nc3c(nnn3Cc3ccc(F)cc3)c(=O)[nH]2)c(C)c1,"inconclusive: 29.1 µM [falling, partial curve, poor fit]",
COc1ccc(OC)c(NC(=O)CCn2c(=S)[nH]c3ccccc3c2=O)c1,,inactive: 7.96%
CCOC(=O)Cc1csc(SCC(=O)NC2CCCC2)n1,,inactive: -9.06%
COc1cc(Cl)c(C)cc1NC(=O)c1cnn(-c2ccc(C)cc2)c1-n1cccc1,,inactive: 12.1%
O=C(CN1C(=O)c2ccccc2S1(=O)=O)N1CCOCC1,"inconclusive: 1.64 µM [activator, partial curve, poor fit]",
CCOC(=O)CN1C(=O)CC(c2ccccc2)C1=O (stereo not given),,inactive: -15.9%
O=C(NC1CCN(S(=O)(=O)c2ccc(F)cc2)CC1)c1ccc(F)cc1,"inconclusive: 16.4 µM [falling, partial curve, poor fit]",
O=C(O)CSCC(=O)N1CCN(Cc2ccc3c(c2)OCO3)CC1,"inconclusive: 3.66 µM [activator, full curve, poor fit]",
CCOC(=O)c1[nH]c2c(c1Cc1ccccc1)C(=O)CC(c1ccc(OC)cc1)C2 (stereo not given),"inconclusive: 20.6 µM [falling, single point]",
Cc1sc2nc(CN3CCCC3)nc(N3CCN(C(=O)c4ccco4)CC3)c2c1C,"inconclusive: 5.8 µM [falling, single point]",
Fc1ccc(-c2ccnn2-c2ccccc2)cc1,"inconclusive: 29.1 µM [activator, single point]",
CC1CCCN(c2ncnc3c2nc2n3CCCCC2)C1 (stereo not given),"inconclusive: 3.26 µM [activator, partial curve]",
CN(C)c1ccc(CNc2nc(-c3ccco3)nn2S(C)(=O)=O)cc1,"inconclusive: 29.1 µM [activator, single point]",

Compound,Potency,"activity change, negative = inhibition"
Brc1ccc2[nH]c3c(N4CCc5ccccc5C4)ncnc3c2c1,active: 9.2 µM,
CCN(CC)C(=O)Cn1cc(C(=O)C(=O)NCCc2c[nH]c3ccccc23)c2ccccc21,"inconclusive: 8.2 µM [falling, partial curve, poor fit]",
COc1ccc(OCc2cc(C(=O)N3CCCC3)no2)c2ccccc12,"inconclusive: 2.59 µM [activator, full curve]",
COc1ccc(C2c3c(ncn(Cc4ccccc4)c3=N)Oc3ccc4ccccc4c32)cc1OC (stereo not given),,inactive: 2.72%
COc1cccc(N2CCN(C(=O)CN3C(=O)NC(C)(c4ccc5ccccc5c4)C3=O)CC2)c1 (stereo not given),"inconclusive: 29.1 µM [falling, single point]",
COc1ccc(-c2cc(CCC(=O)N3CCN(c4cc(C)ccc4C)CC3)[nH]n2)cc1,"inconclusive: 29.1 µM [falling, single point]",
Cc1ccccc1Cn1c(=O)n(CCCCC(=O)NCCc2ccccc2)c(=O)c2ccccc21,,inactive: 7.57%
N#C/C(=C\Nc1ccc2c(c1)OCCO2)c1nc(-c2ccccc2)cs1,"inconclusive: 6.51 µM [falling, partial curve, poor fit]",
CCN1C(=NCCc2ccc(Br)cc2)N[C@@H](c2ccccc2)[C@H](C(=O)OC)[C@H]1C,,inactive: 12.9%
O=C(Nc1cccnc1Cl)c1ccc(Cl)cc1,"inconclusive: 7.31 µM [activator, partial curve]",
CC(C)(C)OC(=O)N1CCC(c2c(C(=O)Nc3ccc4c(c3)OCO4)cnn2-c2ccc(F)cc2F)CC1,,inactive: 4.56%
CCOC(=O)c1[nH]c2ccccc2c1NC(=O)c1ccc(Br)o1,"inconclusive: 16.4 µM [falling, partial curve]",
COc1ccc(NC(=O)/C(C#N)=C/c2ccc(C)o2)cc1,"inconclusive: 23.1 µM [activator, partial curve]",
Cc1ccc(-c2nn(-c3ccccc3)cc2C(=O)Nc2ccc(C(=O)O)cc2)cc1,"inconclusive: 5.17 µM [activator, full curve]",
Cc1cc(-c2ccc(C)c(S(=O)(=O)N(Cc3cccs3)C(C)C)c2)on1,"inconclusive: 29.1 µM [falling, single point]",
COc1cccc(-n2c(C)nc3c(cnn3-c3ccc(C)cc3)c2=O)c1,"inconclusive: 25.9 µM [falling, partial curve, poor fit]",
Cc1ccc(C(=O)NC2CCCCNC2=O)cc1 (stereo not given),"inconclusive: 25.9 µM [activator, single point]",
CC(=O)NCCC(=O)Nc1cc(S(=O)(=O)N2CCCCC2)ccc1N1CCCCC1,"inconclusive: 3.66 µM [falling, full curve]",
COc1ccccc1C(=O)Nc1nnc(S(=O)(=O)N(C)Cc2ccccc2)s1,"inconclusive: 29.1 µM [falling, single point]",
Cc1cc2c(cc1C)C(c1cccc(OC(C)C)c1)CC(=O)N2 (stereo not given),active: 16.4 µM,
CC(=O)Nc1nccc(-c2cc(-c3ccccc3)no2)n1,"inconclusive: 3.66 µM [activator, full curve]",
